Results are given in words; binding and its absence hold for the method and conditions named. In cells and extracts the contact can be indirect. Some results given as binding are weak or reduced against the parent protein; the word gives no strength.
Biological target: T1, ubiquitin-specific peptidase 37 (USP37), endogenous (human (endogenous in SGC7901 and AGS)) (UniProt Q86T82)
T1 sequence: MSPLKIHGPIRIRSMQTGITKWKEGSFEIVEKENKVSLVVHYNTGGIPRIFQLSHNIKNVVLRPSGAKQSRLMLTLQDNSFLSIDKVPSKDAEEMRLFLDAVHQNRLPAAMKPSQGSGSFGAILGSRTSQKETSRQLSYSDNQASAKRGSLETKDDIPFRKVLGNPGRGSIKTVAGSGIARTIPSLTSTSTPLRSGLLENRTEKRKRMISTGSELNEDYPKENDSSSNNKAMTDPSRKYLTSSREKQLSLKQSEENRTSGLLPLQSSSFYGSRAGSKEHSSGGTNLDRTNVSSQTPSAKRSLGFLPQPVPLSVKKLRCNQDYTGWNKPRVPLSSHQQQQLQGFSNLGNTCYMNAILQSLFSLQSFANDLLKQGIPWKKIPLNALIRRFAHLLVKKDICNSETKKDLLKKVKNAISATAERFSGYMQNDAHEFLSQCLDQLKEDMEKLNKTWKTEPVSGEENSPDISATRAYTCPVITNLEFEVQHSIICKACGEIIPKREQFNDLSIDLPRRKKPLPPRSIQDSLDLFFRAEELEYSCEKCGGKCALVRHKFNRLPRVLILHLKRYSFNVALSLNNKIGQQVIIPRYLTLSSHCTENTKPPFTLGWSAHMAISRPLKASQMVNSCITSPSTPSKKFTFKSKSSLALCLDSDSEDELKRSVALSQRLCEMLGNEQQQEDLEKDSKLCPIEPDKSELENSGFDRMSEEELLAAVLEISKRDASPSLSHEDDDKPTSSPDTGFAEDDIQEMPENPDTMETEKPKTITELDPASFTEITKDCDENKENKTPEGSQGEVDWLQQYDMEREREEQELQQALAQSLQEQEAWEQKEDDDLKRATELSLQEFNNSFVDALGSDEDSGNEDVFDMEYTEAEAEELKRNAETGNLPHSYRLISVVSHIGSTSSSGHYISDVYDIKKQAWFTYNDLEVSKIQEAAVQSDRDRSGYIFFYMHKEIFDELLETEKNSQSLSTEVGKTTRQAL
Test: co-IP; reciprocal co-immunoprecipitation and western blot of the endogenous proteins in SGC7901 and AGS cells

By UniProt entry, the sequences of proteins in these tests, tags left out.
UniProt O95863: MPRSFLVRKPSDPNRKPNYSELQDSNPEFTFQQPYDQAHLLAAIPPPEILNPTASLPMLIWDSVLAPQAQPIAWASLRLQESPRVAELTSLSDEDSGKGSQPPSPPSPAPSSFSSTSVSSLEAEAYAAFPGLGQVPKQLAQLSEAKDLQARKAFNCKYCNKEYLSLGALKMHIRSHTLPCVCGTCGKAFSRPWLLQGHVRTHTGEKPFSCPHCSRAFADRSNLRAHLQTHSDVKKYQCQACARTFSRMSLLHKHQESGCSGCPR

binding: binds
Substance: snail family transcriptional repressor 1 (Snail1), endogenous (from UniProt O95863 1-264)

Reference: publication PMC7738862
